From publication PMC11837641 come the findings set out here.

Amino acid sequences for entries named in this document (tags omitted). A change or cut given only in a name is not applied to a line headed by its entry. Residues count along the entry.
UniProt Q9H239: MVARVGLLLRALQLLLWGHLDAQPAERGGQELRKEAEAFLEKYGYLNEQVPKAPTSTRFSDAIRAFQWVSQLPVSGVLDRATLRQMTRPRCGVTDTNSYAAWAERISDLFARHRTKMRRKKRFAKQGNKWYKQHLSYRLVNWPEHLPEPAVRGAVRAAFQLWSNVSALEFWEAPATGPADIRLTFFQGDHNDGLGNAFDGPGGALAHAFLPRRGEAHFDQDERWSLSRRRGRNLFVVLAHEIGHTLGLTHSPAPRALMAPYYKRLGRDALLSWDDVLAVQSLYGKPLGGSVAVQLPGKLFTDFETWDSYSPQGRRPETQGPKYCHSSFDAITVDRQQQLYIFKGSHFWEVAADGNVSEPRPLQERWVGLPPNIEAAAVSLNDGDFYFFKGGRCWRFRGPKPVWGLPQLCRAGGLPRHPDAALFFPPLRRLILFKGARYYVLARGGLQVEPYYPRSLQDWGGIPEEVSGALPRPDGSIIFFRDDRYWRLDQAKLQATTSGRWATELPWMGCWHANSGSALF
UniProt O43707: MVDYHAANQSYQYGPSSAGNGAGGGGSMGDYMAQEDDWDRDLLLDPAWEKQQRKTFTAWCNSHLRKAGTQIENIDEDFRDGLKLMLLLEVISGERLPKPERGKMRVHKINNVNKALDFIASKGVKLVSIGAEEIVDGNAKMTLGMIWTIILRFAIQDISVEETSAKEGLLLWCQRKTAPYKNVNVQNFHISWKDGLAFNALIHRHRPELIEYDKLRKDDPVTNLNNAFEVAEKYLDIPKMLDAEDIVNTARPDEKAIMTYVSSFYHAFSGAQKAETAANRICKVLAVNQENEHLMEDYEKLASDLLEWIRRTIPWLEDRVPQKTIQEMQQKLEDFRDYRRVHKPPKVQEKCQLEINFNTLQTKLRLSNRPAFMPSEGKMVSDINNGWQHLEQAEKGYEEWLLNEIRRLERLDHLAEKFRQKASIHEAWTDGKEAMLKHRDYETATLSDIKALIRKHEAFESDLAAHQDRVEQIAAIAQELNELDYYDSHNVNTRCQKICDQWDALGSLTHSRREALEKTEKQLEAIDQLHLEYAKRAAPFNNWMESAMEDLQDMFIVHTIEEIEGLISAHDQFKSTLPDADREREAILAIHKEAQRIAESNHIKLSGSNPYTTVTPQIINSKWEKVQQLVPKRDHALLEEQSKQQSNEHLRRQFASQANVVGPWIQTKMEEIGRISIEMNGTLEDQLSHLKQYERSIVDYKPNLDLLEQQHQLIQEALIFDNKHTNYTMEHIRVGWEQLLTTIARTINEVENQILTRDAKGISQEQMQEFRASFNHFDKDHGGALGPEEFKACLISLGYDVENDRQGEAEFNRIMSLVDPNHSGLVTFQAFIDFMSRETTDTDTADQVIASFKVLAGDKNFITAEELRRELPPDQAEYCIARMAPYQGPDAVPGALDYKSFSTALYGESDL
UniProt P04406: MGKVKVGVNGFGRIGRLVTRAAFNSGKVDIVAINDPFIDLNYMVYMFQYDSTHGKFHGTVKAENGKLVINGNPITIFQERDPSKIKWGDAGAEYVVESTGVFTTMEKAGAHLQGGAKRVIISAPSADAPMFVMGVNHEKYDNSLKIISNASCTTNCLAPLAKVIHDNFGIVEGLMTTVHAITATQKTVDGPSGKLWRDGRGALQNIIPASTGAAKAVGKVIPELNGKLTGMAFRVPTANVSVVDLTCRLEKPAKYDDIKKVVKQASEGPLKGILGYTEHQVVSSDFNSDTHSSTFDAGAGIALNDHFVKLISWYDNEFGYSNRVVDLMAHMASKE
UniProt P11142: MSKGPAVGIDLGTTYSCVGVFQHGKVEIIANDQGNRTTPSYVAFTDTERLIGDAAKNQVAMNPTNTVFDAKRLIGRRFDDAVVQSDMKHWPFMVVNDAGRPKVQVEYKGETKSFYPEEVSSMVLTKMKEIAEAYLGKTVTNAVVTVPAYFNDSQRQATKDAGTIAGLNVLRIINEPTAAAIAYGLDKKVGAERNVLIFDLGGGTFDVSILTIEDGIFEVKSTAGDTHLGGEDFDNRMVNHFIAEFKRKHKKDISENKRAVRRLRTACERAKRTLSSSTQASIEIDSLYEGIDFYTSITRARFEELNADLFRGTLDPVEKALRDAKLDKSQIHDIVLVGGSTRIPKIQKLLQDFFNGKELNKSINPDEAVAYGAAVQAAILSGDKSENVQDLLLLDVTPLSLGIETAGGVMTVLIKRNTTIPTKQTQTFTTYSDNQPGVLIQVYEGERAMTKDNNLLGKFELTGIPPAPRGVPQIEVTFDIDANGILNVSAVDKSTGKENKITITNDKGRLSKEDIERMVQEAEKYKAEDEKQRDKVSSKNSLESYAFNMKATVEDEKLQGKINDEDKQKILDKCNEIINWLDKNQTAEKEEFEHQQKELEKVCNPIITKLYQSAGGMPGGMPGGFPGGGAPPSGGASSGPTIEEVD
UniProt P10809, residues 27-573: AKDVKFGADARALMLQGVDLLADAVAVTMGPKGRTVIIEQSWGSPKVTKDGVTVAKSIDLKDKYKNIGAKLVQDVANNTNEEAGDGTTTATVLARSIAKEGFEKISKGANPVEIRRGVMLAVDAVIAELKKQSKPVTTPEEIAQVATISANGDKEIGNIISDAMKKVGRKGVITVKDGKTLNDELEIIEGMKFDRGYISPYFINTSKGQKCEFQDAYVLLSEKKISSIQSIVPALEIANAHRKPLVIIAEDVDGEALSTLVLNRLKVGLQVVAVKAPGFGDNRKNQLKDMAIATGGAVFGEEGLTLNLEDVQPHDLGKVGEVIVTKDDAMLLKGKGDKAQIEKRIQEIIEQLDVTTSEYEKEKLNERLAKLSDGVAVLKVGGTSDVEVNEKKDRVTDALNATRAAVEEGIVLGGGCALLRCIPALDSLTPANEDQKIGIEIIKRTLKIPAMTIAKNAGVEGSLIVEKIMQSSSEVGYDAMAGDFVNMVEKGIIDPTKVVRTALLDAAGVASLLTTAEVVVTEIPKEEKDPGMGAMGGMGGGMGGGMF
UniProt P14618: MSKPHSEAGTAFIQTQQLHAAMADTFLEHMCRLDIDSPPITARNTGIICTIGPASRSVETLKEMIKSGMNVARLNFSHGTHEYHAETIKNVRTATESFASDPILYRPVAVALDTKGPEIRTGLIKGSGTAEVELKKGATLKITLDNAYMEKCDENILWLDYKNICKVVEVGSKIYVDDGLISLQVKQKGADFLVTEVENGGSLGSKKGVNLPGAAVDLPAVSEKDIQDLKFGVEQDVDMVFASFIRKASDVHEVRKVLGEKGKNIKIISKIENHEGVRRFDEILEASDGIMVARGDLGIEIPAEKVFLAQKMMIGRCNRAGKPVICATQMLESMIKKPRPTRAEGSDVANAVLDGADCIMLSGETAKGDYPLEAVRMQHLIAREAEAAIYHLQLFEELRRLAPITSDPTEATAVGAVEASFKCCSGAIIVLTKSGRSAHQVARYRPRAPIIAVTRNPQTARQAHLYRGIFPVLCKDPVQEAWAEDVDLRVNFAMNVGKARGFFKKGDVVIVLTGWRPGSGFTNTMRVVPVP
UniProt P07355: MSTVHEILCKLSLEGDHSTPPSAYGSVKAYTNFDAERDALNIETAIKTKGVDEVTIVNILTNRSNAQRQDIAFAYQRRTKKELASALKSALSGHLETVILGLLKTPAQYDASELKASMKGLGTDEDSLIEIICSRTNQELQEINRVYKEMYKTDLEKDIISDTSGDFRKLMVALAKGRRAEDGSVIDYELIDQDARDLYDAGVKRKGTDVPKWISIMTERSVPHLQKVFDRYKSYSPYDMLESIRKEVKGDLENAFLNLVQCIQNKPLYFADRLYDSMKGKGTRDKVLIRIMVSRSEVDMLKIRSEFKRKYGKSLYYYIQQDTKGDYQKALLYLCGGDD
UniProt Q14315: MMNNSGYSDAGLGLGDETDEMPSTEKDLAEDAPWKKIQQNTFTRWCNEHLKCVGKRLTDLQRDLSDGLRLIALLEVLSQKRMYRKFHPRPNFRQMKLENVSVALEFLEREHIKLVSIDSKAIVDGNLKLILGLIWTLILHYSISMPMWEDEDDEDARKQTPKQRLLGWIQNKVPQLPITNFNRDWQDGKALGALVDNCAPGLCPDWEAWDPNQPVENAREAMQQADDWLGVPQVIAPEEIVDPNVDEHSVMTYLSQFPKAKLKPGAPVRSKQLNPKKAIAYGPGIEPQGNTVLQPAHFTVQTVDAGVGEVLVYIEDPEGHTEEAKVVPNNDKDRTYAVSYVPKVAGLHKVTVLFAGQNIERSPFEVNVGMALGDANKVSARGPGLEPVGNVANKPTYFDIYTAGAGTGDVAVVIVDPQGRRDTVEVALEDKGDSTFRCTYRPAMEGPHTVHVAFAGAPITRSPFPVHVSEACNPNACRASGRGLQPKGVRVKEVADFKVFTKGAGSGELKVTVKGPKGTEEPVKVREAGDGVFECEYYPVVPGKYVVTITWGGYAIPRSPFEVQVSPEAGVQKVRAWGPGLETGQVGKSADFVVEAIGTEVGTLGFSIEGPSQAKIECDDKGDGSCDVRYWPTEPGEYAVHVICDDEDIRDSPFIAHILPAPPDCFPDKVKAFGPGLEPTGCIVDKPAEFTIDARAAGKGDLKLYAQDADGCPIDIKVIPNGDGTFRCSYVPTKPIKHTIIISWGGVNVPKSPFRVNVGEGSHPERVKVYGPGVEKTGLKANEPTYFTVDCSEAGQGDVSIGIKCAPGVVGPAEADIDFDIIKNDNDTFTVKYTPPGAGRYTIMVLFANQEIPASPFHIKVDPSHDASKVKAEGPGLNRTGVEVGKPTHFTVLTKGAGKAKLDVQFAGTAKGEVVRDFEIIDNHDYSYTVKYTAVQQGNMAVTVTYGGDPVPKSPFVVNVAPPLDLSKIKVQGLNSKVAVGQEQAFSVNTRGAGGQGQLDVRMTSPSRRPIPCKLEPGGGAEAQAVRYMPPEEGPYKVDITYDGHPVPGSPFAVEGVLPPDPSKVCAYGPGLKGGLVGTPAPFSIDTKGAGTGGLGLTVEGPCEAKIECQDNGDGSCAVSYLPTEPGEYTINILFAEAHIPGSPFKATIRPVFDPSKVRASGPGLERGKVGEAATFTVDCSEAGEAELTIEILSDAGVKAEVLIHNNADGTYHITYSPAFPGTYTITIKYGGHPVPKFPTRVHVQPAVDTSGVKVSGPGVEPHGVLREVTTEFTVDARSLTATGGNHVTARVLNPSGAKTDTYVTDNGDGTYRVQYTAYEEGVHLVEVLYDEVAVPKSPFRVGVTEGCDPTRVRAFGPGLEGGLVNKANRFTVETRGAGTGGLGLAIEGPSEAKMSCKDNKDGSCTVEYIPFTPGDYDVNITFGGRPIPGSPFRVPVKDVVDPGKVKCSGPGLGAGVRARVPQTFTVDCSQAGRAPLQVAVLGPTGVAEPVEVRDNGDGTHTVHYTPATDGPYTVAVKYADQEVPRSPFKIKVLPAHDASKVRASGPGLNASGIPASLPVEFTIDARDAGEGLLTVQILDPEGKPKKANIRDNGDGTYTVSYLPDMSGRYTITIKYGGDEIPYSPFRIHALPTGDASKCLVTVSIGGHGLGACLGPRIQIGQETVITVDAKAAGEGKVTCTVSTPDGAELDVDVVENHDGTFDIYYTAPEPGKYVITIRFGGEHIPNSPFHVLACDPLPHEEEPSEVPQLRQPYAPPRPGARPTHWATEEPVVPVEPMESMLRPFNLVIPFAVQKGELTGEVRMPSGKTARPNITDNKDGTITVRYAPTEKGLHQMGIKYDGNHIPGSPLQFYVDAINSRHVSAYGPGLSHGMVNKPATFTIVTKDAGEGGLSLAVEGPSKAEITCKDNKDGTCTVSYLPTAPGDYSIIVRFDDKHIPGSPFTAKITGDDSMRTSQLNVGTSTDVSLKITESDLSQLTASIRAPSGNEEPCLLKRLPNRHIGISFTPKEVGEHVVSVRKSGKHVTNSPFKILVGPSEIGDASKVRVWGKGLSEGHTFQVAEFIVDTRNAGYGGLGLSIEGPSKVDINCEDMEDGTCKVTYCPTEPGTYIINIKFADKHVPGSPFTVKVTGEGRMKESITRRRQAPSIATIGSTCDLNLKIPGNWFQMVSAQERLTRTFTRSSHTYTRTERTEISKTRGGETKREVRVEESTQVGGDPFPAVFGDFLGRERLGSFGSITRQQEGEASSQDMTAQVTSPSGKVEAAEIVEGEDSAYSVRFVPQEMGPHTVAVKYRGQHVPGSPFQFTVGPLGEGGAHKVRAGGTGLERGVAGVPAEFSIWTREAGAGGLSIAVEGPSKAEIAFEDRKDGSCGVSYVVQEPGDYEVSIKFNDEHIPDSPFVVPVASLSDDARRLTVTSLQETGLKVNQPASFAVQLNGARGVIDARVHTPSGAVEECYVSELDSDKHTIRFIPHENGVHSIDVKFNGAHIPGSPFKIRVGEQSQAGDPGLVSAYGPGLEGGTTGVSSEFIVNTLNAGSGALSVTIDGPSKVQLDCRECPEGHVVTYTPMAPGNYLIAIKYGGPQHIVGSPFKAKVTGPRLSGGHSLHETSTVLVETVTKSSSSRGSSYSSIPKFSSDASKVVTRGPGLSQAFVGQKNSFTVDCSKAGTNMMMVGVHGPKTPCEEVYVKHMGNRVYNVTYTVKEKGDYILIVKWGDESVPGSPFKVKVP

No constants are given. Whether binding was seen depends on the method and setting. In cells and extracts the contact can be indirect. These calls come from enrichment with a bait or labelling near it, and not all partners need be listed.

The first assay concerns the target matrix metalloproteinase 28 (MMP28) (human (endogenous in AsPC-1 and BxPC-3)) (UniProt Q9H239). The assay can be described thus: affinity purification with mass spectrometry; AsPC-1 whole-cell lysate (enhanced RIPA buffer) incubated with MMP28 antibody or IgG control at 4 °C overnight, protein A/G agarose 3 h, five RIPA washes; LC-MS/MS; top 30 candidates listed.
As for ACTN4 (from UniProt O43707 1-911), the binding result was “binds”.
Still for that read-out and setting: next, ENO1 (from UniProt P06733 1-434): “binds”; FLNB (from UniProt O75369 1-2602): “binds”.
The same measure, in the same setting: next, GAPDH (from UniProt P04406 1-335): “binds”.
For the substance GPI (from UniProt P06744 1-558), the binding result is on record as “binds”.
Consider HSP90AB1 (from UniProt P08238 1-724), for which the binding result is “binds”.
Same read-out and setting: next, HSPA8 (from UniProt P11142 1-646): “binds”; HSPD1 (from UniProt P10809 27-573): “binds”.
On the same count and under the same terms, in the case of IGKV4-1 (from UniProt P06312 21-121) it was “binds”; in that of LMNA (from UniProt P02545 1-646), “binds”.
On to PEBP1 (from UniProt P30086 1-187), for which the binding entry is listed as “binds”.
PKM (from UniProt P14618 1-531): the binding result is given as “binds”.
The same measure, in the same setting: in the case of TUBA1B (from UniProt P68363 1-451) it was “binds”; in that of VIM (from UniProt P08670 1-466), “binds”; in that of YWHAE (from UniProt P62258 1-255), “binds”.
Turning to YWHAZ (from UniProt P63104 1-245), the binding result is “binds”.
Consider “annex protein A2 (ANXA2) (from UniProt P07355 1-339)”, for which the binding result is recorded as “binds”.

For the next assay the target is unchanged. The assay can be described thus: affinity purification with mass spectrometry; BxPC-3 whole-cell lysate (enhanced RIPA buffer) incubated with MMP28 antibody or IgG control at 4 °C overnight, protein A/G agarose 3 h, five RIPA washes; LC-MS/MS; top 30 candidates listed.
For ENO1 (from UniProt P06733 1-434), the binding result is “binds”.
Same read-out and setting: next, FLNC (from UniProt Q14315 1-2725): “binds”; GAPDH (from UniProt P04406 1-335): “binds”; GSTP1 (from UniProt P09211 1-210): “binds”.
Turning to MUC19 (from UniProt Q7Z5P9 22-8384), the binding entry is on record as “binds”.
The same measure, in the same setting: in the case of NUPL1 (from UniProt Q9BVL2 1-599) it was “binds”; in that of PCLO (from UniProt Q9Y6V0 1-5142), “binds”; in that of PKM (from UniProt P14618 1-531), “binds”.
On to RPLP2 (from UniProt P05387 1-115), for which the binding entry is on record as “binds”.
On the same count and under the same terms, in the case of TLN1 (from UniProt Q9Y490 1-2541) it was “binds”; in that of TTN (from UniProt Q8WZ42 1-34350), “binds”; in that of TUBA1C (from UniProt Q9BQE3 1-449), “binds”.
Same read-out and setting: next, “annex protein A2 (ANXA2) (from UniProt P07355 1-339)”: “binds”.
